# Results are given in words; binding and its absence hold for the method and conditions named. In cells and extracts the contact can be indirect. These calls come from enrichment with a bait or labelling near it, and not all partners need be listed. For some assays here: Tags and fused reporters may be left off the sequences shown.
# Chains of the proteins cited; added tags and fusions are not shown.
# UniProt P61244: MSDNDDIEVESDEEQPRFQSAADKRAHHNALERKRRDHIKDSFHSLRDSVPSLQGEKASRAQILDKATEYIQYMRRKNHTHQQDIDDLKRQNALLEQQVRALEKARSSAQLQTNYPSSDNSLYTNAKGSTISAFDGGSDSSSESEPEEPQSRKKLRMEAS
# UniProt Q15014: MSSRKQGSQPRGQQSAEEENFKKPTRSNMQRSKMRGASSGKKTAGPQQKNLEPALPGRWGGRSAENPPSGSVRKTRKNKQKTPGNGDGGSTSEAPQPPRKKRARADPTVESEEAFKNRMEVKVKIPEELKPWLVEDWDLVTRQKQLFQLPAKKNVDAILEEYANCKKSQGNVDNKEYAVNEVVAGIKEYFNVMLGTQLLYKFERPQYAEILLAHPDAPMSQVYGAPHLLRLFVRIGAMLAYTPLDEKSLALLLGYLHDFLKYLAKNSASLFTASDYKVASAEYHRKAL
# UniProt Q52LR7: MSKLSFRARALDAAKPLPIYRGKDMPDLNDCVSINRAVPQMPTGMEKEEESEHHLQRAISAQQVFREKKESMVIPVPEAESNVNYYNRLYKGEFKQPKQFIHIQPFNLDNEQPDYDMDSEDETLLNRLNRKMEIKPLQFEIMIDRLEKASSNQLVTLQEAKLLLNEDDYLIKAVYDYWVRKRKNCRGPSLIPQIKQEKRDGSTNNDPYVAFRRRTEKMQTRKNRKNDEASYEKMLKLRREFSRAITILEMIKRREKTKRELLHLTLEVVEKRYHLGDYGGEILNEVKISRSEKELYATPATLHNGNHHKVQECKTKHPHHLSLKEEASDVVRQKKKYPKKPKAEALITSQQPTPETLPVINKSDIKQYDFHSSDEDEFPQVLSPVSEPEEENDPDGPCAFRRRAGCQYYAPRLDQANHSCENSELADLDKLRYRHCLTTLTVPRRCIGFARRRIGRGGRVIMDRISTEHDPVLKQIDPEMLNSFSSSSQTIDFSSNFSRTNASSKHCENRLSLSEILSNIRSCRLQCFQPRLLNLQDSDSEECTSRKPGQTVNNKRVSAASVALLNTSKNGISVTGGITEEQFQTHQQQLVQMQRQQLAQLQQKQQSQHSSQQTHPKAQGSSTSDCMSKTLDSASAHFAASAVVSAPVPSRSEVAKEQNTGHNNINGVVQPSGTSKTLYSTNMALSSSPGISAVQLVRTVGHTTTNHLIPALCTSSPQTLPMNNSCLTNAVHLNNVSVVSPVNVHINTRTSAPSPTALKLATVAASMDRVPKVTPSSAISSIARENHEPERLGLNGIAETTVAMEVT
# Biological target: MAX (human (endogenous in MKL-1 and the other cell lines)) (UniProt P61244)
# Experiment: affinity purification with mass spectrometry
row,Molecule,binding
1,"MYCL (protein, UniProt P12524 1-364) MDYDSYQHYFYDYDCGEDFYRSTAPSEDIWKKFELVPSPPTSPPWGLGPGAGDPAPGIGPPEPWPGGCTGDEAESRGHSKGWGRNYASIIRRDCMWSGFSARERLERAVSDRLAPGAPRGNPPKASAAPDCTPSLEAGNPAPAAPCPLGEPKTQACSGSESPSDSENEEIDVVTVEKRQSLGIRKPVTITVRADPLDPCMKHFHISIHQQQHNYAARFPPESCSQEEASERGPQEEVLERDAAGEKEDEEDEEIVSPPPVESEAAQSCHPKPVSSDTEDVTKRKNHNFLERKRRNDLRSRFLALRDQVPTLASCSKAPKVVILSKALEYLQALVGAEKRMATEKRQLRCRQQQLQKRIAYLTGY",binds

# Biological target: Merkel cell polyomavirus large T antigen, truncated form (Merkel cell polyomavirus)
# Experiment: affinity purification with mass spectrometry
row,Molecule,binding
1,"RB1 (protein, UniProt P06400 1-928) MPPKTPRKTAATAAAAAAEPPAPPPPPPPEEDPEQDSGPEDLPLVRLEFEETEEPDFTALCQKLKIPDHVRERAWLTWEKVSSVDGVLGGYIQKKKELWGICIFIAAVDLDEMSFTFTELQKNIEISVHKFFNLLKEIDTSTKVDNAMSRLLKKYDVLFALFSKLERTCELIYLTQPSSSISTEINSALVLKVSWITFLLAKGEVLQMEDDLVISFQLMLCVLDYFIKLSPPMLLKEPYKTAVIPINGSPRTPRRGQNRSARIAKQLENDTRIIEVLCKEHECNIDEVKNVYFKNFIPFMNSLGLVTSNGLPEVENLSKRYEEIYLKNKDLDARLFLDHDKTLQTDSIDSFETQRTPRKSNLDEEVNVIPPHTPVRTVMNTIQQLMMILNSASDQPSENLISYFNNCTVNPKESILKRVKDIGYIFKEKFAKAVGQGCVEIGSQRYKLGVRLYYRVMESMLKSEEERLSIQNFSKLLNDNIFHMSLLACALEVVMATYSRSTSQNLDSGTDLSFPWILNVLNLKAFDFYKVIESFIKAEGNLTREMIKHLERCEHRIMESLAWLSDSPLFDLIKQSKDREGPTDHLESACPLNLPLQNNHTAADMYLSPVRSPKKKGSTTRVNSTANAETQATSAFQTQKPLKSTSLSLFYKKVYRLAYLRLNTLCERLLSEHPELEHIIWTLFQHTLQNEYELMRDRHLDQIMMCSMYGICKVKNIDLKFKIIVTAYKDLPHAVQETFKRVLIKEEEYDSIIVFYNSVFMQRLKTNILQYASTRPPTLSPIPHIPRSPYKFPSSPLRIPGGNIYISPLKSPYKISEGLPTPTKMTPRSRILVSIGESFGTSEKFQKINQMVCNSDRVLKRSAEGSNPPKPLKKLRFDIEGSDEADGSKHLPGESKFQQKLAEMTSTRTRMQKQKMNDSMDTSNKEEK",binds
2,"VPS39 (protein, UniProt Q96JC1 1-886) MHDAFEPVPILEKLPLQIDCLAAWEEWLLVGTKQGHLLLYRIRKDVVPADVASPESGSCNRFEVTLEKSNKNFSKKIQQIHVVSQFKILVSLLENNIYVHDLLTFQQITTVSKAKGASLFTCDLQHTETGEEVLRMCVAVKKKLQLYFWKDREFHELQGDFSVPDVPKSMAWCENSICVGFKRDYYLIRVDGKGSIKELFPTGKQLEPLVAPLADGKVAVGQDDLTVVLNEEGICTQKCALNWTDIPVAMEHQPPYIIAVLPRYVEIRTFEPRLLVQSIELQRPRFITSGGSNIIYVASNHFVWRLIPVPMATQIQQLLQDKQFELALQLAEMKDDSDSEKQQQIHHIKNLYAFNLFCQKRFDESMQVFAKLGTDPTHVMGLYPDLLPTDYRKQLQYPNPLPVLSGAELEKAHLALIDYLTQKRSQLVKKLNDSDHQSSTSPLMEGTPTIKSKKKLLQIIDTTLLKCYLHTNVALVAPLLRLENNHCHIEESEHVLKKAHKYSELIILYEKKGLHEKALQVLVDQSKKANSPLKGHERTVQYLQHLGTENLHLIFSYSVWVLRDFPEDGLKIFTEDLPEVESLPRDRVLGFLIENFKGLAIPYLEHIIHVWEETGSRFHNCLIQLYCEKVQGLMKEYLLSFPAGKTPVPAGEEEGELGEYRQKLLMFLEISSYYDPGRLICDFPFDGLLEERALLLGRMGKHEQALFIYVHILKDTRMAEEYCHKHYDRNKDGNKDVYLSLLRMYLSPPSIHCLGPIKLELLEPKANLQAALQVLELHHSKLDTTKALNLLPANTQINDIRIFLEKVLEENAQKKRFNQVLKNLLHAEFLRVQEERILHQQVKCIITEEKVCMVCKKKIGNSAFARYPNGVVVHYFCSKEVNPADT",binds

# Biological target: EP400 (human (endogenous in MKL-1)) (UniProt Q96L91)
# Experiment: affinity purification with mass spectrometry
row,Molecule,binding
1,EPC1 (from UniProt Q9H2F5 1-836),binds
2,ING3 (from UniProt Q9NXR8 1-418),binds
3,DMAP1 (from UniProt Q9NPF5 1-467),binds
4,BRD8 (from UniProt Q9H0E9 1-1235),binds
5,YEATS4 (from UniProt O95619 1-227),binds
6,MBTD1 (from UniProt Q05BQ5 1-628),binds
7,ACTL6A (from UniProt O96019 1-429),binds
8,TRRAP (from UniProt Q9Y4A5 1-3859),binds
9,KAT5 (from UniProt Q92993 1-513),binds
10,MORF4L1 (from UniProt Q9UBU8 1-362),binds
11,MORFL2 (from UniProt Q15014 1-288),binds
12,EPC2 (from UniProt Q52LR7 1-807),binds

# Biological target: MAX (human (endogenous in MKL-1 and the other cell lines)) (UniProt P61244)
# Experiment: affinity purification with mass spectrometry
# Remark: another data set of the same source
row,Molecule,binding
1,MORFL2 (from UniProt Q15014 1-288),binds
2,EPC2 (from UniProt Q52LR7 1-807),binds

# Reference: article PMC5640240
